Results from PubChem BioAssay (EPA / NIEHS).
Inconclusive results, whose numbers are uncertain, are shown with a selection of clear calls. For some of these results: Potencies beside an inconclusive call are fits to weak or partial responses and may not hold up. Calls of active or inactive are those of the source. How the source made its calls: active means hit-call score of the fitted dose curve at least 0.9, where 1 is the maximum; inconclusive means response in the unintended direction; inactive means score below 0.9.

The chains behind the UniProt entries cited, without tags or fusion partners. Where a name states a change or a piece, a line headed by the entry shows the natural chain unless it says otherwise.
UniProt O97775: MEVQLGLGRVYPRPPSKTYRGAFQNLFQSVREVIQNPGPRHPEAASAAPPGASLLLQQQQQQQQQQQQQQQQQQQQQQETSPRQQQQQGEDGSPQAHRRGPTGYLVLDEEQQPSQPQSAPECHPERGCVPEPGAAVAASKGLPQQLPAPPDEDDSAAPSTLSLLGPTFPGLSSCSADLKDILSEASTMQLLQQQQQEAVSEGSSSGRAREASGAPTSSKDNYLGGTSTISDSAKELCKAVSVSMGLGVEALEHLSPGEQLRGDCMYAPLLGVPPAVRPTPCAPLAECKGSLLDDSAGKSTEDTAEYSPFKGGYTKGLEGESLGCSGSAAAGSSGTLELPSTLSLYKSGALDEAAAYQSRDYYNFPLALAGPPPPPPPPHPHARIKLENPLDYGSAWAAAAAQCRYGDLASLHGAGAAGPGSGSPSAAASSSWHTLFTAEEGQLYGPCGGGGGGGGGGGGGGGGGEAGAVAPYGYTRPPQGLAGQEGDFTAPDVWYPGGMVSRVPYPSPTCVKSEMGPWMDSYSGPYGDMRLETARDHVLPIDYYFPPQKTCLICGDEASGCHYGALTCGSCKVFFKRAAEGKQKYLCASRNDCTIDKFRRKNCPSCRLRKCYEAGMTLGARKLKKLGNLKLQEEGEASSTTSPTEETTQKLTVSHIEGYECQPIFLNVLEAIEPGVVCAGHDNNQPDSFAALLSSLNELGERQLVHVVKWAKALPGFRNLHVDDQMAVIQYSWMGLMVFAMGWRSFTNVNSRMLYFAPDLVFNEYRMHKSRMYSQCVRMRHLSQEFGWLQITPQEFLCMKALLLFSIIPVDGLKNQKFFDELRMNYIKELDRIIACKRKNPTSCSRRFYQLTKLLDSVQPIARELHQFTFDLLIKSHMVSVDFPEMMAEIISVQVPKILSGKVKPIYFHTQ
UniProt P37238, whole entry, looked up: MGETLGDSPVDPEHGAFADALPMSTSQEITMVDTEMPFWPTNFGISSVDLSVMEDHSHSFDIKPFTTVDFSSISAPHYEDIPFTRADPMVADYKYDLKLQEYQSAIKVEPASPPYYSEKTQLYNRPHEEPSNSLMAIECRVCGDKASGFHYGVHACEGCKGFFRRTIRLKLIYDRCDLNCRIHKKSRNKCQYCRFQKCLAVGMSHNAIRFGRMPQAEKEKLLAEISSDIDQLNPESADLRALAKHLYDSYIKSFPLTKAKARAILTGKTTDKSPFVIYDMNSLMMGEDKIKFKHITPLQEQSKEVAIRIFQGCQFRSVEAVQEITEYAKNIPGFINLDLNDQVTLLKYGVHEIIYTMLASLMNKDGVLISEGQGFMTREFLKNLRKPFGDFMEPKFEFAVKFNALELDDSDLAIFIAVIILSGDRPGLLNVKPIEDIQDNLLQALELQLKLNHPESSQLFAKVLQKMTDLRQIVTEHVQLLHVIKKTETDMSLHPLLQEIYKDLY
UniProt Q12923: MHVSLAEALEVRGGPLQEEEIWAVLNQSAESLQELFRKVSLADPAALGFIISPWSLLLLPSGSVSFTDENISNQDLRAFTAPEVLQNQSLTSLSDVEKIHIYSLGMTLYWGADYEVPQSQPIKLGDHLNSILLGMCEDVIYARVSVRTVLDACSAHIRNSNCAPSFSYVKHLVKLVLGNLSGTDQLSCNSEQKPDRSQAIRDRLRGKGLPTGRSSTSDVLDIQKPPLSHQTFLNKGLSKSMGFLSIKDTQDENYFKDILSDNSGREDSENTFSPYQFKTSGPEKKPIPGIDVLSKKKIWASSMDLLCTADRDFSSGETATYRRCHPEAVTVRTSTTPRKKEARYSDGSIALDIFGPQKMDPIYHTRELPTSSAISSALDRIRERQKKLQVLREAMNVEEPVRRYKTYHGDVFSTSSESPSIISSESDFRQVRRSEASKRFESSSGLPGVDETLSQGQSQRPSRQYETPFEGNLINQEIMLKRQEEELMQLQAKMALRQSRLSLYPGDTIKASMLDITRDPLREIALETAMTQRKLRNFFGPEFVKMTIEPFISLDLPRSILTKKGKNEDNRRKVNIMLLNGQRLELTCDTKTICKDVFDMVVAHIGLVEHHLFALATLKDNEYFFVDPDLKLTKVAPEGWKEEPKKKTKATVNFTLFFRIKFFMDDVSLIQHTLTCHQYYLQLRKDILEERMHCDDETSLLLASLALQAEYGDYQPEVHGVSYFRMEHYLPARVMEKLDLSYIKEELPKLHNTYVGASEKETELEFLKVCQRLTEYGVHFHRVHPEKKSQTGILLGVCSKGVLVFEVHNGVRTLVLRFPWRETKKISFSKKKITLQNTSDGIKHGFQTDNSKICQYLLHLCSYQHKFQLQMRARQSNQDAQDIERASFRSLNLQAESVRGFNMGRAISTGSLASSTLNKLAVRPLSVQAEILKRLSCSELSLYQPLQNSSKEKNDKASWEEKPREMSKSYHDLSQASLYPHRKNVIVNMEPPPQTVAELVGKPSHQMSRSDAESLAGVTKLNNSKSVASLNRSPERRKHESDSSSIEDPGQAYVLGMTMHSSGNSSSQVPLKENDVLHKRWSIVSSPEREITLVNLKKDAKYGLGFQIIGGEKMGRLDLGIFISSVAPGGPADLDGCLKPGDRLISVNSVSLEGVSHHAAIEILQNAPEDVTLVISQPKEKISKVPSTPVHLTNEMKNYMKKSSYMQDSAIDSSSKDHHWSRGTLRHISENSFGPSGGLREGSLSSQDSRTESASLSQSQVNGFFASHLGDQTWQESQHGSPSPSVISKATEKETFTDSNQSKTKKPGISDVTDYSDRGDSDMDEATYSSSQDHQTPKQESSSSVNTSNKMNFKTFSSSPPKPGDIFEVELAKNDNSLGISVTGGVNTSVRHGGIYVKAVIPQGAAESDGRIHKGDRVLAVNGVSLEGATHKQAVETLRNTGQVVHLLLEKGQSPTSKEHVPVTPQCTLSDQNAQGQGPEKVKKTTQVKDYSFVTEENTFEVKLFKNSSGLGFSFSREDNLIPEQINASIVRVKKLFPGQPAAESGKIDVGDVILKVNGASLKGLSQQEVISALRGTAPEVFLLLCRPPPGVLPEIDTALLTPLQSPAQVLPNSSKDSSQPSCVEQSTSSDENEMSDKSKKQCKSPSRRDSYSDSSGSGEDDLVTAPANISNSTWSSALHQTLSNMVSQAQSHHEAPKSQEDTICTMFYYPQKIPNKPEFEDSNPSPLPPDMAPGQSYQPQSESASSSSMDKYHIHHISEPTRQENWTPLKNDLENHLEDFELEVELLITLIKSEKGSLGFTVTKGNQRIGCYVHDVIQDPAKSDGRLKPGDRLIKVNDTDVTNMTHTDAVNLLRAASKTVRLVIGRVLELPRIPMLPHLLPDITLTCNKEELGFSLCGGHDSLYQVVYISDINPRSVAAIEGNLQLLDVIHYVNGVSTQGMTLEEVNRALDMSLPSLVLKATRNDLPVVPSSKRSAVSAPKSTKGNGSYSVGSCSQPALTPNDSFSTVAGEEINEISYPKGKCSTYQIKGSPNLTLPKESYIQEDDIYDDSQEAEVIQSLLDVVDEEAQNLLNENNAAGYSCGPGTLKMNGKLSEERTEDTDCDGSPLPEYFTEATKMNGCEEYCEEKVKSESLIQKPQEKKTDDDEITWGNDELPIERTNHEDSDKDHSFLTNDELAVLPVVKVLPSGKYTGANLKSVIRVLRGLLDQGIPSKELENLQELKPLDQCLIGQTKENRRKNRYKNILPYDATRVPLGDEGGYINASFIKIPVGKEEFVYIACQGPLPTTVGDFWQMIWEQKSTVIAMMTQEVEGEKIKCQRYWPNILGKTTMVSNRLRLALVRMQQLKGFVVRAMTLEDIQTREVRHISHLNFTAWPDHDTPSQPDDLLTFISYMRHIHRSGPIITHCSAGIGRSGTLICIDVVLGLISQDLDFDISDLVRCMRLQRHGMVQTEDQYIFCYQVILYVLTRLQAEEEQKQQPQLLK
UniProt P56817: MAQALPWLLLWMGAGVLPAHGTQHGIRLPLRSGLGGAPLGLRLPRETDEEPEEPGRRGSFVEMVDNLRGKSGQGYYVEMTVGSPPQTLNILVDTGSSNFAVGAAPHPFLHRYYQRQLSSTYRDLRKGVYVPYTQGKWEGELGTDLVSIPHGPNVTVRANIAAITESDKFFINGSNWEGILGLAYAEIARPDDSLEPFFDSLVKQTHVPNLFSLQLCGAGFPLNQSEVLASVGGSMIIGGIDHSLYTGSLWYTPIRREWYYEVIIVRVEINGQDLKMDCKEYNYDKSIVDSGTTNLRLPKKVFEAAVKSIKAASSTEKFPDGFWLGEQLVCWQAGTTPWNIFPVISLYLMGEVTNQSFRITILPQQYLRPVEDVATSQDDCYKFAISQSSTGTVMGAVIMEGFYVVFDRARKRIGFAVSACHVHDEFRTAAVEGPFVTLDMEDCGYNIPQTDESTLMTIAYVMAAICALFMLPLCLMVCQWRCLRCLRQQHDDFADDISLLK
UniProt Q14790: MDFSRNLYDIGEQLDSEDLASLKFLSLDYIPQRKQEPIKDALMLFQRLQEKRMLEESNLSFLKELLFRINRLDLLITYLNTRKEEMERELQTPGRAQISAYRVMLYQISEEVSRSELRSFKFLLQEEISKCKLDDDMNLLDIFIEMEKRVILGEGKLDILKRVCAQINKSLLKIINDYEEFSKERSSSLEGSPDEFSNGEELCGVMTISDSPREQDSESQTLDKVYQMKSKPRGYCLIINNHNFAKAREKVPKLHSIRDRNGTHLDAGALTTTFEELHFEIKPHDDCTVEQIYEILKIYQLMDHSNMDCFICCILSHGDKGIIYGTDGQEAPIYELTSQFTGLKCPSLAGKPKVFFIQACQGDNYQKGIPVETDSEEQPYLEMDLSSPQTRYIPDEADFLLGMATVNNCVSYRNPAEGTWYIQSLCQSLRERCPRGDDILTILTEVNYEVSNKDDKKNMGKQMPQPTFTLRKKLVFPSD
UniProt P28646: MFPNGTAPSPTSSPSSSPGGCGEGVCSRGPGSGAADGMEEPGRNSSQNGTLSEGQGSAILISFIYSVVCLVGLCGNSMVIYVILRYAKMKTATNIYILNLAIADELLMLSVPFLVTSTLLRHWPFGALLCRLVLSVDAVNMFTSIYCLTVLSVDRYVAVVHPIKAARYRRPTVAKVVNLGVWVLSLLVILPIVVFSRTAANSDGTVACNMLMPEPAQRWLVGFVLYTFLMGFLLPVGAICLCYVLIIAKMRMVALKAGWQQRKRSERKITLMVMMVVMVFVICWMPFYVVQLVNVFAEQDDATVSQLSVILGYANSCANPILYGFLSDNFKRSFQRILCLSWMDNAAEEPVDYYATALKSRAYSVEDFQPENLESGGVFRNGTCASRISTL
UniProt P28223, whole entry, looked up: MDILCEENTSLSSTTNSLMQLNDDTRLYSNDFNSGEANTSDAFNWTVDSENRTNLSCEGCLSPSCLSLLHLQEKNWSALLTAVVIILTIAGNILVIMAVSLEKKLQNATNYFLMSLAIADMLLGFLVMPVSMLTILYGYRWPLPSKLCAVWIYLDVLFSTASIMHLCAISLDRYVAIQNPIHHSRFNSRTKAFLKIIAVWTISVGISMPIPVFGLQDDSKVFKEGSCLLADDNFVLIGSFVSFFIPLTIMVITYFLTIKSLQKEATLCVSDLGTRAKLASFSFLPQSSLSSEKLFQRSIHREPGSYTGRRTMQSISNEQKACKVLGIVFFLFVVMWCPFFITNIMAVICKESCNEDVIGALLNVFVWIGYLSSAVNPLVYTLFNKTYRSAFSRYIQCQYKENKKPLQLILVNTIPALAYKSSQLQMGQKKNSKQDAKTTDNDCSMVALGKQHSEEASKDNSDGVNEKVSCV
UniProt P70606, whole entry, looked up: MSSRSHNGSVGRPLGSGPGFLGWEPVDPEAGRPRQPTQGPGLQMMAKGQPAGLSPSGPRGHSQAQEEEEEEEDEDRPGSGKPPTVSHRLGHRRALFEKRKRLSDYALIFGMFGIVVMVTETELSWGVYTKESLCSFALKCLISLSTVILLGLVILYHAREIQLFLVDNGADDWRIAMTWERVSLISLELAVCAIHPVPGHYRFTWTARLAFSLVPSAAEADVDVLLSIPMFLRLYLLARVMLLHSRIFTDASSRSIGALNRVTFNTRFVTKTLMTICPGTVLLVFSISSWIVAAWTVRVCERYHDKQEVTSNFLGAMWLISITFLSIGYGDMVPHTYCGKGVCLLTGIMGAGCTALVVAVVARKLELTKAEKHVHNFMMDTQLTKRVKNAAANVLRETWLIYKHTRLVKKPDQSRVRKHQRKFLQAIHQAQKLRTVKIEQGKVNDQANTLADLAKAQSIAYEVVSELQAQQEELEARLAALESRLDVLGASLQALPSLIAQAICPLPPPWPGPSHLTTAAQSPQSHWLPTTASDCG

Legend:
[1] = NVS_IC_rCaBTZCHL: NovaScreen (NVS) Ion Channel Assay for Calcium Channel, Type L, Benzothiazepine Site (CaBTZCHL) (AID 2283337)
Procedure, shortened: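 Rat cortical membrane preparation incubated 1.5 h with compound and benzothiazepine-site radioligand; loss of filter-bound counts versus DMSO marks displacement. Initial duplicate testing at 25 uM, actives followed up in concentration series.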

[2] = biological target: chimpanzee Androgen Receptor (AR), AR (gene 747460) (UniProt O97775); assay: NVS_NR_cAR: NovaScreen (NVS) Nuclear Receptor Binding Assay for chimpanzee Androgen Receptor (AR) (AID 2283346);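 further: radioligand displacement from AR measured by scintillation counting in a cell-free assay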
Procedure, shortened: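 Cell-free radioligand displacement using receptor protein extracted from Sf9/Sf21 cells; bound radioligand measured by scintillation counting 72 hours after chemical dosing. Loss of signal versus DMSO baseline indicates binding; primary screen single-concentration in duplicate at 25 uM, actives followed in concentration series.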

[3] = test system: zebrafish Peroxisome Proliferator-activated Receptor gamma (PPARg), gene 557037; assay: ATG_zfPPARg_XSP1: Attagene TRANS-FACTORIAL Multi-Species (XSP1) HepG2 Assay for zebrafish Peroxisome Proliferator-activated Receptor gamma (PPARg) (AID 2283801)
Procedure, shortened: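 Trans-activation readout of chimeric zebrafish PPARg–GAL4 in transiently transfected human HepG2 cells, 24 h chemical exposure (medium includes 3 nM 6-alpha-fluorotestosterone). Reporter transcripts measured by RT-PCR and capillary electrophoresis, fitted as gain over DMSO.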

[4] = biological target: mouse Peroxisome Proliferator-activated Receptor gamma (PPARg), Pparg (gene 19016) (UniProt P37238); assay: ATG_mPPARg_XSP1: Attagene TRANS-FACTORIAL Multi-Species (XSP1) HepG2 Assay for mouse Peroxisome Proliferator-activated Receptor gamma (PPARg) (AID 2283802)
Procedure, shortened: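 Readout is reporter mRNA induction, measured by RT-PCR with 6-FAM labelling, HpaI digestion and capillary electrophoresis, 24 h post-dose relative to DMSO. Transient multi-reporter transfection of human HepG2 with mouse PPARg–GAL4 fusion; 3 nM 6-alpha-fluorotestosterone included.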

[5] = biological target: Tyrosine-protein phosphatase non-receptor type 13 (Homo sapiens) (UniProt Q12923); assay: NVS_ENZ_hPTPN13: NovaScreen (NVS) Enzymatic Assay for human Protein Tyrosine Phosphatase Non-receptor Type 13 (PTPN13) (AID 2283205)
Procedure, shortened: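 Screened first at a single 25 uM in duplicate; compounds passing the threshold (e.g. 30% inhibition) were rerun in concentration series, top 50 uM. Recombinant enzyme, fluorescent substrate, mobility-shift separation, 0.5 h read. Data fitted as inhibition relative to DMSO.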

[6] = biological target: human Beta-secretase (BACE), BACE1 (gene 23621) (UniProt P56817); assay: NVS_ENZ_hBACE: NovaScreen (NVS) Enzymatic Assay for human Beta-secretase (BACE) (AID 2283140);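 further: hits are inhibitors that reduce fluorescent substrate signal versus DMSO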
Procedure, shortened: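 Enzyme from SF9 cells was incubated 1 hour with compound and fluorogenic substrate, activity read by fluorescence. Single-concentration duplicates at 25 uM preceded concentration-response follow-up; fitting relative to DMSO baseline.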

[7] = biological target: human Vascular Endothelial Growth Factor Receptor 3 (VEGFR3), FLT4 (gene 2324) (UniProt P35916); assay: NVS_ENZ_hVEGFR3: NovaScreen (NVS) Enzymatic Assay for human Vascular Endothelial Growth Factor Receptor 3 (VEGFR3) (AID 2283229)
Procedure, shortened: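 Chemicals first run in duplicate at 25 uM, with actives re-tested in concentration series to a top of 50 uM. Recombinant VEGFR3 activity measured after 1 h via fluorescence with mobility-shift product separation; inhibition fitted relative to DMSO.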

[8] = biological target: rat Corticotropin Releasing Factor Receptor (CRF), Crhr1 (gene 58959) (UniProt P35353); assay: NVS_GPCR_rCRF: NovaScreen (NVS) G Protein-Coupled Receptor Assay for rat Corticotropin Releasing Factor Receptor (CRF) (AID 2283300)
Procedure, shortened: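 Single-concentration (25 uM, duplicate) radioligand binding on rat cortical membrane preparations, counted by scintillation after 2 h. Activity scored as signal loss relative to DMSO negative control.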

[9] = CCTE_Deisenroth_AIME_96WELL_CTox_Inactive: Cytotoxicity Assessment (CTOX) in CCTE's 96-well Estrogen Receptor Transactivation Assay without AIME metabolic competence (metabolism negative), Deisenroth Lab (AID 2284029)
Procedure, shortened: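 Metabolism-negative mode: alginate-water lids without rat S9, 2 h pre-incubation of 10-point series (0.002 - 200 uM). Conditioned medium on VM7Luc4E2 cells 24 h; loss of fluorescent live-cell protease signal marks cytotoxicity.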

NCBI gene 24521 = assay: NVS_IC_rKATPCh: NovaScreen (NVS) Ion Channel Assay for rat Potassium Channel, ATP-Sensitive (KATPCh) (AID 2283319)
Procedure, shortened: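 Primary duplicate screen at 25 uM, then singleton concentration series to 50 uM maximum, in a rat cortex membrane radioligand displacement assay. Binding measured by filtration and scintillation 2 h post-dose; DMSO baseline.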

[10] = biological target: human Caspase 8 (CASP8), CASP8 (gene 841) (UniProt Q14790); assay: NVS_ENZ_hCASP8: NovaScreen (NVS) Enzymatic Assay for human Caspase 8 (CASP8) (AID 2283146)
Procedure, shortened: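 The primary screen tested compounds in duplicate at a single 25 uM concentration, with actives followed up in concentration series. Activity of recombinant (E. coli) protease was measured by fluorescence 1 h post-dose, as signal loss against DMSO.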

[11] = biological target: rat Somatostatin Receptor (SST), Sstr1 (gene 25033) (UniProt P28646); assay: NVS_GPCR_rSST: NovaScreen (NVS) G Protein-Coupled Receptor Assay for rat Somatostatin Receptor (SST) (AID 2283314)
Procedure, shortened: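 Single-concentration duplicate screen (25 uM), then concentration-response up to 50 uM for chemicals passing a threshold such as 30% inhibition. Membranes came from rat forebrain. Binding was measured 1 h post-dose by filter radiodetection and scintillation, relative to DMSO.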

[12] = read-out: sulfotransferase (SULT2A), SULT2A1 (gene 6822); assay: CLD_SULT2A_24hr: CellzDirect (CLD) Gene Expression Assay for sulfotransferase (SULT2A) at 24 hours (AID 2283694);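 further: potency for increased SULT2A1 mRNA level as induction over DMSO baseline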
Procedure, shortened: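 mRNA is measured by qNPA: probe hybridisation, S1 nuclease digestion, chemiluminescence, in lysates from human primary hepatocytes harvested 24 h after daily dosing. Vehicle was 0.2% DMSO. Phase-contrast microscopy flagged cytotoxicity (yes/no).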

[13] = biological target: human CYP4F12, CYP4F12 (gene 66002) (UniProt Q9HCS2); assay: NVS_ADME_hCYP4F12: NovaScreen (NVS) CYP450-related Enzyme Activity (ADME) Assay for human CYP4F12 (AID 2283111)
Procedure, shortened: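 Recombinant enzyme with a fluorescent substrate, signal read at 0.5 h post-dose; activity loss analysed relative to acetonitrile. Compounds first run in duplicate at 10 uM, with follow-up concentration-response testing of actives.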

[14] = biological target: human Endothelin Receptor Type B (ETB), EDNRB (gene 1910) (UniProt P24530); assay: NVS_GPCR_hETB: NovaScreen (NVS) G Protein-Coupled Receptor Assay for human Endothelin Receptor Type B (ETB) (AID 2283267)
Procedure, shortened: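 Filter-based scintillation readout of radioligand displacement, 4 h, using membranes from human astrocytoma cells. Actives from a 25 uM duplicate screen were retested in concentration-response (top 50 uM) relative to DMSO baseline.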

[15] = Tanguay_ZF_120hpf_PFIN_legacy: (Legacy) Oregon State University Tanguay Lab 120 Hour Post-fertilization zebrafish Assay for Pectoral Fin Malformation (AID 2283648);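 further: each larva judged yes or no for fin defect by brightfield with dead larvae skipped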
Procedure, shortened: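 Scoring of pectoral fin malformation was binary, made at 120 hpf on larvae exposed statically from 6 hpf after enzymatic chorion removal. Activity was fitted upward relative to DMSO controls at 0.64% (vol/vol).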

[16] = biological target: Type-1 angiotensin II receptor (Homo sapiens) (UniProt P30556); assay: NVS_GPCR_hAT1: NovaScreen (NVS) G Protein-Coupled Receptor Assay for human Angiotensin II receptor type 1 (AT1) (AID 2283263)
Procedure, shortened: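 Hits from a 25 uM duplicate screen (threshold e.g. 30% inhibition) were run in concentration-response with 50 uM top concentration. Displacement of specific radioligand from KAN-TS membrane preparations measured after 3 h by filter scintillation, DMSO as baseline.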

[17] = CCTE_Simmons_CellTiterGLO_HEK293T: Viability Assessment in CCTE's Assays for Thyroperoxidase (TPO) Inhibition, Simmons Lab (AID 2283665);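 further: cells exposed to compound for 24 h before readout; actives reduce ATP signal below DMSO vehicle meaning cytotoxicity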
Procedure, shortened: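 Luciferase-coupled ATP content after 24 h exposure gives viability; 8-point series from 5 nM to 87.5 uM final in 0.5% DMSO. Human HEK293T cells, 1% FBS medium, three biological replicates, dichlone positive control.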

[18] = biological target: human Serotonin, 5-Hydroxytryptamine Receptor 2A (5HT2A), HTR2A (gene 3356) (UniProt P28223); assay: NVS_GPCR_h5HT2A: NovaScreen (NVS) G Protein-Coupled Receptor Assay for human Serotonin, 5-Hydroxytryptamine Receptor 2A (5HT2A) (AID 2283249)
Procedure, shortened: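 Radioligand displacement on human cortex tissue extract, counted by filtration and scintillation 1.5 h post-dosing. Initial single-concentration screen at 25 uM in duplicate, concentration series in follow-up; DMSO as baseline.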

[19] = biological target: Small conductance calcium-activated potassium channel protein 1 (Rattus norvegicus) (UniProt P70606); assay: NVS_IC_rKCaCh: NovaScreen (NVS) Ion Channel Assay for rat Potassium Channel, Ca2+ Act., VI (KCaCh) (AID 2283336)
Procedure, shortened: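 Filter-based scintillation counting of radioligand bound to rat forebrain membrane preparations, measured 1 h after compound addition. Primary screen used 25 uM in duplicate, with concentration-response follow-up; signal decrease relative to DMSO marks activity.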

Structure (SMILES): OC(c1ccc(Cl)cc1)(c1cncnc1)c1ccccc1Cl (stereo not given)
- outcome [1]: inactive
- outcome [2]: inactive
- AC50 [3]: active: 34.9 µM
- outcome [4]: inactive

Structure (SMILES): COC(=O)c1ccccc1S(=O)(=O)NC(=O)N(C)c1nc(C)nc(OC)n1
- outcome [5]: inactive

Structure (SMILES): Nc1ncc([N+](=O)[O-])s1
- AC50 [6]: inconclusive: 0.451 µM

Structure (SMILES): CCNc1nc(Cl)nc(NC(C)C)n1
- AC50 [7]: inconclusive: 1.13 µM
- outcome [8]: inactive
- AC50 [9]: inconclusive: 66.7 µM

Structure (SMILES): COP(=O)(OC)O/C(C)=C/C(=O)N(C)C
- outcome (NCBI gene 24521): inactive

Structure (SMILES): CON=C(C(=O)OC)c1ccccc1CON=C(C)c1cccc(C(F)(F)F)c1
- AC50 [10]: inconclusive: 6.74 µM
- AC50 [11]: inconclusive: 25 µM

Structure (SMILES): CCC(C)n1c(=O)[nH]c(C)c(Br)c1=O (stereo not given)
- AC50 [12]: inconclusive: 20 µM

Structure (SMILES): CC1COC(Cn2cncn2)(c2ccc(Oc3ccc(Cl)cc3)cc2Cl)O1 (stereo not given)
- AC50 [13]: inconclusive: 0.23 µM
- outcome [14]: inactive
- AC50 [15]: active: 3.69 µM

Structure (SMILES): COC(=O)NS(=O)(=O)c1ccc(N)cc1
- AC50 [16]: inconclusive: 41.4 µM
- AC50 [17]: inconclusive: 10.7 µM

Structure (SMILES): Cc1cccc(C)c1N
- outcome [6]: inactive
- outcome [18]: inactive
- AC50 [19]: inconclusive: 25.9 µM

Structure (SMILES): N#Cc1ccccn1
- AC50 [2]: inconclusive: 0.0216 µM

Structure (SMILES): CCCCC(CC)COC(=O)c1ccccc1C(=O)OCC(CC)CCCC (stereo not given)
- AC50 [13]: inconclusive: 2.65 µM
- outcome [4]: inactive
- outcome [9]: inactive

Structure (SMILES): N#Cc1c[nH]cc1-c1cccc2c1OC(F)(F)O2
- AC50 (NCBI gene 24521): inconclusive: 0.0781 µM
- AC50 [12]: inconclusive: 20 µM

Structure (SMILES): Clc1ccc(C(Cl)(Cl)Cl)cc1
- AC50 [15]: inconclusive: 202 µM

Structure (SMILES): O=C(O)C(F)(F)C(F)(F)C(F)(F)C(F)(F)C(F)(F)C(F)(F)C(F)(F)C(F)(F)F
- AC50 [5]: inconclusive: 0.0307 µM
- AC50 [14]: inconclusive: 25 µM

Structure (SMILES): O=C(O)C(Cl)Cl
- AC50 [8]: inconclusive: 25 µM

Structure (SMILES): CCOP(=S)(OCC)SCn1c(=O)oc2cc(Cl)ccc21
- outcome [3]: inactive

Structure (SMILES): N#CN
- outcome [19]: inactive

Structure (SMILES): CCOP(=S)(S)OCC
- AC50 [1]: inconclusive: 14.5 µM

Structure (SMILES): Cc1nn(-c2cc(NS(C)(=O)=O)c(Cl)cc2Cl)c(=O)n1C(F)F
- outcome [10]: inactive

Structure (SMILES): CS/C(C)=N/OC(=O)N(C)SN(C)C(=O)O/N=C(\C)SC
- AC50 [11]: active: 17.2 µM

Structure (SMILES): CN(C)c1ccccc1
- AC50 [18]: inconclusive: 25.9 µM
- AC50 [17]: inconclusive: 45.3 µM

Structure (SMILES): COc1cc(OC)nc(Sc2cccc(Cl)c2C(=O)O)n1
- outcome [16]: inactive

Structure (SMILES): ClC1=C(Cl)C2(Cl)C3C(Cl)C(Cl)CC3C1(Cl)C2(Cl)Cl (stereo not given)
- AC50 [7]: inconclusive: 0.801 µM
